Laboratory results: PubChem BioAssay AID602196 (INSERM, 2012)

Assay: 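Knock-downs that protect lung cancer cells from cisplatin or sensitise them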
Cell system: human A549 lung cancer cells
Reagents: siRNA pair against human genes
Time to read-out: 48 h transfection before cisplatin; time from cisplatin to read-out not stated
Conditions: cisplatin at a dose killing half of control-siRNA cells; exact dose and duration not given
Measurement: 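Shift in cisplatin death relative to control siRNA, from -50 (all cells die) to +50 (no cells die); siRNAs harmful on their own scored 0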
Scale: two-siRNA summed score (-2 to +2): higher = both siRNAs protect from cisplatin killing; -2 means both sensitise
Active means: 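siRNAs harmful alone (LDH or WST-1) get 0; others get +1 for less and -1 for more cisplatin killing; genes are active when the two siRNAs give the same sign, summing to ±2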
Calls: active = both siRNAs shift cisplatin killing the same way; inactive = no consistent shift, or siRNA harmful alone
This is an unselected part of about 23,000 reagents tested. Of all reagents, 455 (2%) were called active. 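Active includes both protection and sensitisation; some change values fall well beyond the stated -50 to +50 range.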 Not all columns of the deposit are shown. The record does not give: the amount of reagent.

target gene	two-siRNA summed score (-2 to +2)	activity call
LBH (LBH regulator of Wnt signaling pathway)	-1	inactive
CAMK2A (calcium/calmodulin dependent protein kinase II alpha)	0	inactive
MAVS (mitochondrial antiviral signaling protein)	0	inactive
MAGEH1 (MAGE family member H1)	0	inactive
PHACTR4 (phosphatase and actin regulator 4)	0	inactive
SUPT20HL2 (SUPT20H like 2)	0	inactive
AASDH (aminoadipate-semialdehyde dehydrogenase)	0	inactive
XK	1	inactive
LOC388914	0	inactive
CLIP2 (CAP-Gly domain containing linker protein 2)	0	inactive
EPHA8 (EPH receptor A8)	1	inactive
LOC440635	0	inactive
EIF3E (eukaryotic translation initiation factor 3 subunit E)	0	inactive
ADGRB3 (adhesion G protein-coupled receptor B3)	1	inactive
MBD4 (methyl-CpG binding domain 4, DNA glycosylase)	0	inactive
UQCR11 (ubiquinol-cytochrome c reductase, complex III subunit XI)	0	inactive
LOC440407	0	inactive
C6orf118 (chromosome 6 open reading frame 118)	0	inactive
TTYH2 (tweety family member 2)	0	inactive
CNRIP1 (cannabinoid receptor interacting protein 1)	0	inactive
TMEM158 (transmembrane protein 158)	0	inactive
RSPRY1 (ring finger and SPRY domain containing 1)	0	inactive
LOC440794	0	inactive
ERVW-1 (endogenous retrovirus group W member 1, envelope)	0	inactive
PPP1R1B (protein phosphatase 1 regulatory inhibitor subunit 1B)	0	inactive
FRYL (FRY like transcription coactivator)	0	inactive
UTP25 (UTP25 small subunit processome component)	1	inactive
TMEM106C (transmembrane protein 106C)	-1	inactive
CCND2 (cyclin D2)	0	inactive
EFCAB11 (EF-hand calcium binding domain 11)	0	inactive
DPP9 (dipeptidyl peptidase 9)	1	inactive
EPHX3 (epoxide hydrolase 3)	0	inactive
LOC390550	0	inactive
VEGFD (vascular endothelial growth factor D)	0	inactive
LOC392447	1	inactive
ZFX (zinc finger protein X-linked)	1	inactive
SUV39H2 (SUV39H2 histone lysine methyltransferase)	0	inactive
TIMM44 (translocase of inner mitochondrial membrane 44)	0	inactive
DNAAF4 (dynein axonemal assembly factor 4)	0	inactive
IL2 (interleukin 2)	0	inactive
LTB4R (leukotriene B4 receptor)	1	inactive
LOC440782	0	inactive
MDM2 (MDM2 proto-oncogene)	0	inactive
EDDM3B (epididymal protein 3B)	-1	inactive
FLJ46838 (retired record)	1	inactive
LOC442160	1	inactive
SHKBP1 (SH3KBP1 binding protein 1)	0	inactive
OSBPL11 (oxysterol binding protein like 11)	0	inactive
MYO1F (myosin IF)	0	inactive
NAAA (N-acylethanolamine acid amidase)	0	inactive
MMP2 (matrix metallopeptidase 2)	-1	inactive
C10orf62 (chromosome 10 open reading frame 62)	0	inactive
LOC387898	0	inactive
ODAD1 (outer dynein arm docking complex subunit 1)	-1	inactive
CLEC7A (C-type lectin domain containing 7A)	1	inactive
LINC03040 (long independently transcribed non-coding RNA 3040)	0	inactive
PSMB5 (proteasome 20S subunit beta 5)	1	inactive
